Measurements taken from paper PMC13280575.
These are yes or no findings as the source states them, for the method shown. Binding seen in cells or lysates may run through a third protein. Binding calls can cover weak binding; strength is not graded here. Sequences can lack the tags named with a protein.

Protein sequences, listed by entry. Tags and fused reporters are not part of them. Lines headed by an entry give the natural chain unless they say otherwise; changes in a name come on top.
UniProt P14859: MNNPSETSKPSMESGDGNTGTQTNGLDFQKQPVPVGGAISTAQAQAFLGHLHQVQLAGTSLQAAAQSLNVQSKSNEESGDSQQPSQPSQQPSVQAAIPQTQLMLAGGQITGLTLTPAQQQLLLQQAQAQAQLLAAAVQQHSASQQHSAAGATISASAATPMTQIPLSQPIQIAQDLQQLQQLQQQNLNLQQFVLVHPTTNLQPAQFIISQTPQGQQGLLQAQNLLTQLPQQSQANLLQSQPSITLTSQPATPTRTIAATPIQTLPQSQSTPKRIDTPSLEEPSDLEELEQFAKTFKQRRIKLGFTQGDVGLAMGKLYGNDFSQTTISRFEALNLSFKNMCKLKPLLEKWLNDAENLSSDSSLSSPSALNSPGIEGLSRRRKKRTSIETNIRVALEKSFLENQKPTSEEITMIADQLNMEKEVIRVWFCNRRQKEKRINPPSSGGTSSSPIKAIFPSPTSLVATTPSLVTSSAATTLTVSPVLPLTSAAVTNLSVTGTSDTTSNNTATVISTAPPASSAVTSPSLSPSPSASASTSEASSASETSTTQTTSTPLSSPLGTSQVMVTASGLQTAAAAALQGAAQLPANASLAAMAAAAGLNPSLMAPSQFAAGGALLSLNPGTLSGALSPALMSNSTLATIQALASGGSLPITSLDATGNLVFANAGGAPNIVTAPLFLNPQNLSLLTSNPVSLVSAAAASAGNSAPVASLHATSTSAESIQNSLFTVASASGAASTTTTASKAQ

Target: FLAG-POU domain of POU2F1(OCT-1), in vitro translated (human) (UniProt P14859)
Assay: pull-down; in vitro translated FLAG-POU on anti-FLAG M2 agarose beads, alone or first with in vitro translated (myc)6-BRCA1 fragment (1 h, 4 °C), then [35S]-labelled (myc)6-PER2 (2 h); autoradiography

- binding: binds
B1: (myc)6-BRCA1 (1670–1863), in vitro translated (domain or fragment, UniProt P38398 1670-1863)
chain: RKHHITLTNLITEETTHVVMKTDAEFVCERTLKYFLGIAGGKWVVSYFWVTQSIKERKMLNEHDFEVRGDVVNGRNHQGPKRARESQDRKIFRGLEICCYGPFTNMPTDQLEWMVQLCGASVVKELSSFTLGTGVHPIVVVQPDAWTEDNGFHAIGQMCEAPVVTREWVLDSVALYQCQELDTYLIPQIPHSHY
modifications: [35S]-methionine label
